Reference: PubChem BioAssay AID1159584 (Peter MacCallum Cancer Centre, 2016)
Assay: 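Genes whose loss is lethal only together with E-cadherin loss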 (primary screen). System: human MCF10A breast epithelial cells, parental and CDH1-null. Reagents: siRNA against human genes. Measured: 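ATP luminescence (CellTiter-Glo) viability per line relative to mean mock wells over all plates, and the ratio of CDH1-null to parental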. Direction: CDH1-null / parental viability ratio: higher = CDH1-null cells survive relatively better than parental; CDH1-null viability vs mock: higher = more viable CDH1-null cells.
The deposit covers about 18,000 reagents; below is a part drawn at random. Further read-outs or replicates are left out here. Reagent sequences are not shown. Not given: the amount of reagent, the time to read-out.

no.	gene	PubChem SID	CDH1-null / parental viability ratio	CDH1-null viability vs mock (fraction of mock)
1	PGA4	SID135625472	0.95	0.56
2	OR7A10	SID152147825	0.99	0.97
3	PPP2CA	SID152149024	1.17	0.91
4	H3C6	SID134315788	1.15	0.94
5	FCER2	SID134320242	0.81	0.83
6	KCNJ12	SID134311660	1.1	0.88
7	PALS1	SID134314142	0.98	0.92
8	TTN	SID135620980	0.83	0.78
9	RIC3	SID134320187	1.15	0.7
10	GPN2	SID152153719	1.24	0.72
11	ARHGEF10L	SID135623276	0.95	0.82
12	DOK1	SID56479245	1.53	0.9
13	GABRG1	SID152155037	1.2	1.09
14	ADH1B	SID152156155	1.02	0.82
15	SMYD1	SID135624330	0.89	0.7
16	SERPINB8	SID135623745	1.14	0.84
17	PRKY	SID135620861	1	0.42
18	COX7B2	SID152151684	1.02	1
19	PABPC1L2B	SID135625506	1.07	0.98
20	TMTC3	SID152150512	1.09	0.94
21	TMEM196	SID135623051	1.06	1.05
22	ZNF623	SID152154287	1.16	0.86
23	GSTT1	SID134315538	0.97	1.02
24	APP	SID134310060	0.96	0.9
25	MTPAP	SID134320476	1.09	0.97
26	MRGPRX1	SID152156386	0.73	0.8
27	PRKD1	SID152147507	0.99	0.96
28	CNGA2	SID134329422	1.13	0.88
29	CHCHD5	SID135622826	1.04	0.52
30	PCDH8	SID134315694	0.82	0.54
31	PLAC8	SID134324030	0.94	0.77
32	CHRNA1	SID152147603	1.21	0.92
33	PRKCE	SID135620860	1.02	0.84
34	EZR	SID152149358	0.87	0.66
35	INKA1	SID134329411	0.8	0.69
36	REP15	SID152149482	1.59	0.94
37	GBGT1	SID152147226	0.91	0.84
38	STAU2	SID134312018	1.22	1.1
39	ICAM4	SID152153466	1.47	1.06
40	ZNF24	SID134323473	1.22	0.83
41	HAP1	SID152151018	1.25	0.95
42	TSPYL2	SID152152497	1.2	1.06
43	SNRNP48	SID152149050	1.02	0.84
44	IL25	SID135621475	0.68	0.52
45	DNAAF11	SID152152265	0.97	0.95
46	RHOG	SID134313834	1.04	1.02
47	SWSAP1	SID134321814	0.95	1.13
48	HSPA2	SID152156012	0.65	0.6
49	CARD14	SID135620821	1.45	0.84
50	ZNF816	SID152155951	0.81	0.92
51	CPXCR1	SID152148753	1.26	0.88
52	CACNB2	SID135621635	1.26	1.08
53	UGT1A6	SID135623937	0.92	0.9
54	SSMEM1	SID135623064	0.79	0.57
55	CASS4	SID135623999	1.34	0.78
56	ARHGAP20	SID152152494	0.9	0.45
57	SARS2	SID134320310	0.64	0.36
58	TMEM192	SID152156320	0.96	0.71
59	TAB1	SID135620883	0.99	1.01
60	GLOD5	SID135624999	1.03	0.94
61	GPATCH4	SID134317255	0.98	0.54
62	CASP8AP2	SID135622315	0.7	0.49
63	HDAC10	SID134310260	1.4	0.73
64	LST1	SID134323459	0.95	0.94
65	OR5T2	SID152150845	1.18	0.87
66	OR4A47	SID135625148	0.82	0.4
67	ALX3	SID152152720	1.01	0.98
68	GOT1L1	SID152154186	1.08	1.06

10 successive records already listed, for reference:
no.	gene	PubChem SID	CDH1-null / parental viability ratio	CDH1-null viability vs mock (fraction of mock)
39	ICAM4	SID152153466	1.47	1.06
40	ZNF24	SID134323473	1.22	0.83
41	HAP1	SID152151018	1.25	0.95
42	TSPYL2	SID152152497	1.2	1.06
43	SNRNP48	SID152149050	1.02	0.84
44	IL25	SID135621475	0.68	0.52
45	DNAAF11	SID152152265	0.97	0.95
46	RHOG	SID134313834	1.04	1.02
47	SWSAP1	SID134321814	0.95	1.13
48	HSPA2	SID152156012	0.65	0.6
